Assay results taken from patent publication US20250213647A1, “CHEMOKINE RECEPTORS AND ALPHA1 ADRENERGIC RECEPTORS/VASOPRESSIN RECEPTORS 1A HETEROMERS AS DRUG TARGETS FOR DISEASE” (UNIVERSITY OF SOUTH FLORIDA, priority 2022, published 2025).

Tested on: leukocyte infiltration into dorsal air pouches
Assay: Murine air pouch model, leukocyte infiltration
Type: in vivo, C57BL/6 mice
Details: 24 hours post injection, 2.5 mg/kg LPS; for CD45 positive cells identified as granulocytes / CD45 positive cells identified as mononuclear cells: 6 μg CCL2 or 2 μg CXCL12; for infiltrated air pouch cells that expressed leukocyte common antigen (CD45): 6 μg CCL2 or 2 μg CXCL12 into the air pouch

Substance: CCL2: chemokine (C-C motif) ligand 2, cognate agonist of CCR2, CCR3 and CCR5
- CD45 positive cells identified as granulocytes: 21±6%
- CD45 positive cells identified as mononuclear cells: 48±3%
- infiltrated air pouch cells that expressed leukocyte common antigen (CD45): 82±10%

Substance: CXCL12: chemokine (C-X-C motif) ligand 12, CXCR4 agonist
- CD45 positive cells identified as granulocytes: 19±7%
- CD45 positive cells identified as mononuclear cells: 37±3%
- infiltrated air pouch cells that expressed leukocyte common antigen (CD45): 83±10%
